Laboratory results: US20170335310A1
These are yes or no findings as the source states them, for the method shown. Some binding calls cover weakened binding; strength is not graded here.

By UniProt entry, the sequences of proteins in these tests, tags left out. Where a name states a change or a piece, a line headed by the entry shows the natural chain unless it says otherwise. Residues count along the entry.
UniProt P01024: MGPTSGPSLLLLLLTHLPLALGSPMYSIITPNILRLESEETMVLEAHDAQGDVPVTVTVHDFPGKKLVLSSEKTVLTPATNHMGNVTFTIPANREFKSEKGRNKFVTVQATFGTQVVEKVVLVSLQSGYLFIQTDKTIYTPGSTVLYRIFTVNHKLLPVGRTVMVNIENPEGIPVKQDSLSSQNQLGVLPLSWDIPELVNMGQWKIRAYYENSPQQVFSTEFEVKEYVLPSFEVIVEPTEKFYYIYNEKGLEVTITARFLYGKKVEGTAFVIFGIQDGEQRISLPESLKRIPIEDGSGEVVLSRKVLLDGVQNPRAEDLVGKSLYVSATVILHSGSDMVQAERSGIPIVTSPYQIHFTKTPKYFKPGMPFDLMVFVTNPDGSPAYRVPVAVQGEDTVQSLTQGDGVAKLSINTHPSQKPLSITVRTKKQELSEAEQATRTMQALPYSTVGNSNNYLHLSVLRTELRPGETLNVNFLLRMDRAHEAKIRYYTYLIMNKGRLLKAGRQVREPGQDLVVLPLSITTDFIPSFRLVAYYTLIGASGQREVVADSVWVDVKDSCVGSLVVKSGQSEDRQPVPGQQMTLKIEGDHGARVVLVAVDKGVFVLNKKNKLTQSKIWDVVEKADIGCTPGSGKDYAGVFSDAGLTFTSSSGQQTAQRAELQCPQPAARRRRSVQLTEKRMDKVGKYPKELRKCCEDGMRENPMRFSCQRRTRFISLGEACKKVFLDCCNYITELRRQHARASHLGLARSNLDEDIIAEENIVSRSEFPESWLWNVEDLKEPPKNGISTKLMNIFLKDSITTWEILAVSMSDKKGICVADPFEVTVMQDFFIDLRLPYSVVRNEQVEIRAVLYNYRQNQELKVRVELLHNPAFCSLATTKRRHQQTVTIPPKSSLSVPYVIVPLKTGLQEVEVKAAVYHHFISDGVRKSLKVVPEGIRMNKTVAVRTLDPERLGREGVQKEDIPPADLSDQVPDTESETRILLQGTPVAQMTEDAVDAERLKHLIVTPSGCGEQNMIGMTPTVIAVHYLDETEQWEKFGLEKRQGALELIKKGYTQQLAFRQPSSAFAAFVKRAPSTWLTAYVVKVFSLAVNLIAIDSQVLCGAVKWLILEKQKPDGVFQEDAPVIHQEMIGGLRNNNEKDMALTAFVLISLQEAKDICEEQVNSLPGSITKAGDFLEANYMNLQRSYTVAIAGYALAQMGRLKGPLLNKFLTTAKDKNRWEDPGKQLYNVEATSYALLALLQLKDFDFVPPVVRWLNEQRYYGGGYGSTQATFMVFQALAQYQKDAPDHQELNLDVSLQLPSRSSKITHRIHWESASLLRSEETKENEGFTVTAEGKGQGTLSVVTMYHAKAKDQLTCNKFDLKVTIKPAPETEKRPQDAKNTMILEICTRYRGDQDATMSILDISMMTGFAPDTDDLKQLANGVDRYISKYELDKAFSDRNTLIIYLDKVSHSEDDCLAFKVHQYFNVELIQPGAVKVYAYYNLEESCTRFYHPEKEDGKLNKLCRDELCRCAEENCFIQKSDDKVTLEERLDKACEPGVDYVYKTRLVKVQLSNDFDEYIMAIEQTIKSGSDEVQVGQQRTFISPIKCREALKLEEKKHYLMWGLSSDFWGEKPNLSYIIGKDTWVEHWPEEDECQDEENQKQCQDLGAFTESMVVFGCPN
UniProt P08603, residues 19-1231: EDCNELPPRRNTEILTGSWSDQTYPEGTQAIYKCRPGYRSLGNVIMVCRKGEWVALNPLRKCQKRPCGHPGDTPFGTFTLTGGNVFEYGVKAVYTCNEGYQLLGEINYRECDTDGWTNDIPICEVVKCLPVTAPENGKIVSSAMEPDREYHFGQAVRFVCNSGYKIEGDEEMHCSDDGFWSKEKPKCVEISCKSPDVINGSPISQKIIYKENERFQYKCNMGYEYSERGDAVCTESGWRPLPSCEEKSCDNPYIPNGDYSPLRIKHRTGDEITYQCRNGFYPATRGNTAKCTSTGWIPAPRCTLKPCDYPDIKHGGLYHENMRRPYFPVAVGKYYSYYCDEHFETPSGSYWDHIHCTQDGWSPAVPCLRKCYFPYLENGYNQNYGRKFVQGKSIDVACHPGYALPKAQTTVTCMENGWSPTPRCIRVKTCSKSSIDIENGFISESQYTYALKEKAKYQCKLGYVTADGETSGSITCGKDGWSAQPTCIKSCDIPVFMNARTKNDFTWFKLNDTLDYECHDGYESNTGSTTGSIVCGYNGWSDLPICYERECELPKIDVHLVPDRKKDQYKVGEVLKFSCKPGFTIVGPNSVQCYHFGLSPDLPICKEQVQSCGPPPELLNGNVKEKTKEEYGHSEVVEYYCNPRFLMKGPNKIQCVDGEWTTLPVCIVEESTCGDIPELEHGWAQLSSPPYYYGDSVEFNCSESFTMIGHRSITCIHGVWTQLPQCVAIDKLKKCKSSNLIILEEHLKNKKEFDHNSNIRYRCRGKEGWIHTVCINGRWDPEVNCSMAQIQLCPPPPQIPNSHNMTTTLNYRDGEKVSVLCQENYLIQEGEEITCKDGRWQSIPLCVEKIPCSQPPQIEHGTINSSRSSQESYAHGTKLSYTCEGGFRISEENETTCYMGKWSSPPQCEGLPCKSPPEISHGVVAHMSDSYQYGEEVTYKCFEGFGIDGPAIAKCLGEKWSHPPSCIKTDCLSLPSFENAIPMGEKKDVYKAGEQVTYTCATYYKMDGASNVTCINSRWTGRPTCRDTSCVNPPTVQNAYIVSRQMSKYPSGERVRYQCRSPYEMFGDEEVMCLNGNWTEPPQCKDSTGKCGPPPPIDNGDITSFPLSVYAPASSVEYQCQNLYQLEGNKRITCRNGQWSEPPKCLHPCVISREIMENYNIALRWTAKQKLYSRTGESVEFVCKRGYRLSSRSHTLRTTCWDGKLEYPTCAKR

Tests used:
[1] = target: C3b (UniProt P01024); test: SPR steady-state response against plasma-purified FH concentration on two flow cells with 1540 and 3030 RU of immobilised C3b [iv]
[2] = target: C3b (UniProt P01024); test: SPR (Biacore), plasma-purified FH concentration series (5.4, 1.0, 0.5, 0.1 uM per legend) flowed over 1540 RU of C3b amine-coupled to a CM5 chip [ii]

binding [1]: binds
binding [2]: binds
Substance: plasma-purified human factor H (from UniProt P08603 19-1231)
